{
  "sequences": {"note": "Amino acid sequences for entries named in this document (tags omitted).", "UniProt Q0JBA9, entry or part of it": "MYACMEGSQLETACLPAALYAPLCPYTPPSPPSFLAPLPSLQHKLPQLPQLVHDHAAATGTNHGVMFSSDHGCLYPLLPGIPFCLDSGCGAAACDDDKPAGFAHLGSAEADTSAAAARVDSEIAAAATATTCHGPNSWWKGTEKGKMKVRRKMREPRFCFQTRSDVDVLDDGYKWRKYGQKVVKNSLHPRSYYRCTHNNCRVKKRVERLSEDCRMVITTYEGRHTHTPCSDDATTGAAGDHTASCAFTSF"},
  "source": "paper PMC7819943",
  "about": "“Rice protein-binding microarrays: a tool to detect cis-acting elements near promoter regions in rice”",
  "note": "This is one part of the list.",
  "data": [
    {"target": "OsWRKY34 (Oryza sativa, UniProt Q0JBA9 1-250)", "test": "protein-binding microarray (RPBM); PBS, 2% BSA, 51.3 ng/ul salmon testes DNA, 50 uM zinc acetate, 200 nM TF, 25 C, 1 h; high values mean tight binding", "details": "protein: recombinant; tags: N-terminal polyhistidine and DsRed monomer fusion (pET32a); label: CyDye5-dUTP incorporated in the synthesized complementary strand; 3' TTTTT single-stranded linker to array surface; dsDNA, one strand shown", "outline": "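The binding signal is fluorescence intensity per feature, in arbitrary units, read on an Axon 4000B scanner. Polyhistidine- and DsRed-tagged transcription factors (N-terminal fusions) from E. coli BL21-CodonPlus were purified on Ni–NTA and applied at 200 nM for 1 h at 25 °C to a double-stranded, BSA-blocked custom Agilent array in buffer with 50 µM zinc acetate.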", "values": [
      {"sequence": "CCCCGCGATCCCGCCTCGGCATATTCGCCGTCCTTCGCCTCGGAGTCACCTAGTGCAG", "binding signal": "10300 fluorescence intensity (a.u.)"},
      {"sequence": "GCCATCTCCTCCCCAACACTGGGCCGCGCCGCATCGTCTCCGGAGTCACCTAGTGCAG", "binding signal": "8200 fluorescence intensity (a.u.)"},
      {"sequence": "TTCCCTCCGTTTCAGGTTATAAGACGTTTTGACTTTGGTTCGGAGTCACCTAGTGCAG", "binding signal": "9490 fluorescence intensity (a.u.)"},
      {"sequence": "ACACACCGCACACCAGGGGCAATCCCGTAAATCGACCAAACGGAGTCACCTAGTGCAG", "binding signal": "9720 fluorescence intensity (a.u.)"},
      {"sequence": "TCTTGCTCAAGATCTATTTGACGCCAACATTTTCGAACAACGGAGTCACCTAGTGCAG", "binding signal": "8530 fluorescence intensity (a.u.)"},
      {"sequence": "GACGCGGCGCAGTGCAACCAACAAACCGGGGCGGGCGGGGCGGAGTCACCTAGTGCAG", "binding signal": "11800 fluorescence intensity (a.u.)"},
      {"sequence": "ATTAATCATATGCTAATGGCTCACCTCATTTTACGTATCTCGGAGTCACCTAGTGCAG", "binding signal": "8940 fluorescence intensity (a.u.)"},
      {"sequence": "CATTTCCATTTCCCAATTCCACCCCTCCTAATCCATTTTCCGGAGTCACCTAGTGCAG", "binding signal": "8240 fluorescence intensity (a.u.)"},
      {"sequence": "TCATTAGCGTTCTTTGTGCTTACTGGTACTATCGGTTTCTCGGAGTCACCTAGTGCAG", "binding signal": "9500 fluorescence intensity (a.u.)"},
      {"sequence": "CCCGCCGTGTGGCCGTGCATTGCTGTCCCTGAGCTTGCTGCGGAGTCACCTAGTGCAG", "binding signal": "8140 fluorescence intensity (a.u.)"},
      {"sequence": "TTCTTCATTTGGTTTTCATAGTTCAGTTGTGTTGTGATCTCGGAGTCACCTAGTGCAG", "binding signal": "14200 fluorescence intensity (a.u.)"},
      {"sequence": "CTGCTGGAGAATCATCCCTGTGATCTTTTGTTTCCTGCTTCGGAGTCACCTAGTGCAG", "binding signal": "8420 fluorescence intensity (a.u.)"},
      {"sequence": "ACGGGGCACGAGACCAACCACGCATTCTAGCGCCACCGAACGGAGTCACCTAGTGCAG", "binding signal": "8170 fluorescence intensity (a.u.)"},
      {"sequence": "GCCGAAAGCCCATTTAGTTAGTTTTGTTCCGCTGAAAGCCCGGAGTCACCTAGTGCAG", "binding signal": "8430 fluorescence intensity (a.u.)"},
      {"sequence": "GCTCCCTACCATCCCATGGCTGCGACAGATTGTTTTATTACGGAGTCACCTAGTGCAG", "binding signal": "8620 fluorescence intensity (a.u.)"},
      {"sequence": "CTCTCTCTTCTTTTATCTCCTCGATATGTGTTTAAGCTGGCGGAGTCACCTAGTGCAG", "binding signal": "8670 fluorescence intensity (a.u.)"},
      {"sequence": "CCCGCTCAAAATAATTCCCGCGTCCCCGCCCGCCGCGGCCCGGAGTCACCTAGTGCAG", "binding signal": "8920 fluorescence intensity (a.u.)"},
      {"sequence": "GACACTCTGCAGTATCCCGTTTGGCAATTTTTCTGCATCACGGAGTCACCTAGTGCAG", "binding signal": "10900 fluorescence intensity (a.u.)"},
      {"sequence": "AGGCTAATACTTTAGCCGGCTGCTGGCTGAATACTACTACCGGAGTCACCTAGTGCAG", "binding signal": "10700 fluorescence intensity (a.u.)"},
      {"sequence": "TGGCCGATCTCCGCGCGATCGACGCGAACCGCCTCATTCTCGGAGTCACCTAGTGCAG", "binding signal": "8070 fluorescence intensity (a.u.)"},
      {"sequence": "CTCCTCCATCTTCGCGCCGCCGTCCCTCACCACATTCGCTCGGAGTCACCTAGTGCAG", "binding signal": "9920 fluorescence intensity (a.u.)"},
      {"sequence": "ATTGTGTTATCAATTCATCTTTGTTATCGTCTTTCTTATGCGGAGTCACCTAGTGCAG", "binding signal": "10800 fluorescence intensity (a.u.)"},
      {"sequence": "TCTTTCTTTCTTTCTTTCTTGTGCGTCATCTCTATCACCGCGGAGTCACCTAGTGCAG", "binding signal": "9850 fluorescence intensity (a.u.)"},
      {"sequence": "ATTTACGCTTTTTTAAGCTCTTTTCCGTTCACTTCTGGACCGGAGTCACCTAGTGCAG", "binding signal": "9140 fluorescence intensity (a.u.)"},
      {"sequence": "CCCCTGGACAACCAAGGAGATGTTCCCAATCATTCTCACCCGGAGTCACCTAGTGCAG", "binding signal": "8380 fluorescence intensity (a.u.)"},
      {"sequence": "TTCACCTGTCTCTCGCCTGCCAACCATCGATCCAAGTCCCCGGAGTCACCTAGTGCAG", "binding signal": "12100 fluorescence intensity (a.u.)"},
      {"sequence": "CGGTTTTGTATAGTTTAGGGGTGGAGATTTCTGGTTTTGTCGGAGTCACCTAGTGCAG", "binding signal": "10300 fluorescence intensity (a.u.)"},
      {"sequence": "TGTTGCATTTCTCGTCCTGATTTGCGTCCTGCAGCTCTCTCGGAGTCACCTAGTGCAG", "binding signal": "8630 fluorescence intensity (a.u.)"},
      {"sequence": "TTTCGTCTTCAATTTTGCTATATATTTGTCGACAAATTTTCGGAGTCACCTAGTGCAG", "binding signal": "10100 fluorescence intensity (a.u.)"},
      {"sequence": "CCGACGATGTTTTCCTCATAGCTCCTGCATTCCAATTTCCCGGAGTCACCTAGTGCAG", "binding signal": "8680 fluorescence intensity (a.u.)"},
      {"sequence": "CTGGGTGTGGGTGTGGGTCTGGGTCTGGGTGGAAGAGGAACGGAGTCACCTAGTGCAG", "binding signal": "21200 fluorescence intensity (a.u.)"},
      {"sequence": "TCGTCTCGATATGTACACCCACACTGCCACATAAATCCTTCGGAGTCACCTAGTGCAG", "binding signal": "9340 fluorescence intensity (a.u.)"},
      {"sequence": "GTTCGCCGTGGATTTCTTTTCTTGCGTCAGTGATACTGATCGGAGTCACCTAGTGCAG", "binding signal": "8170 fluorescence intensity (a.u.)"},
      {"sequence": "TAGACCGACCAGTGAGCCCCTTGCTGTCATCTCCTATCCTCGGAGTCACCTAGTGCAG", "binding signal": "8080 fluorescence intensity (a.u.)"},
      {"sequence": "TCCGCGGCCACGCCATCCGCTCCTACATCTCGCCGGGTGACGGAGTCACCTAGTGCAG", "binding signal": "9350 fluorescence intensity (a.u.)"},
      {"sequence": "CTGAACACTCTATGCTGCAGGTCAACGCAAGCTCACTCAACGGAGTCACCTAGTGCAG", "binding signal": "8380 fluorescence intensity (a.u.)"},
      {"sequence": "CAACTCTCTCTCTCTCTCTTTCTCTGCAGCTCCACCTTCTCGGAGTCACCTAGTGCAG", "binding signal": "8690 fluorescence intensity (a.u.)"},
      {"sequence": "AATTGTGCTGTGGAGTTGTGATGTGGATTTGGGGTTCAATCGGAGTCACCTAGTGCAG", "binding signal": "13700 fluorescence intensity (a.u.)"},
      {"sequence": "CCACCTCATCACCATGTACTCCCACTGCGCCGACCTCGCCCGGAGTCACCTAGTGCAG", "binding signal": "9170 fluorescence intensity (a.u.)"},
      {"sequence": "TTGCTCTTCGACACCCCTGCTTCATGATCATGCTTTGCCTCGGAGTCACCTAGTGCAG", "binding signal": "9730 fluorescence intensity (a.u.)"},
      {"sequence": "TTTTGCCACTATTTTGATATTTTTCCATTCTACTGATTTTCGGAGTCACCTAGTGCAG", "binding signal": "8860 fluorescence intensity (a.u.)"},
      {"sequence": "AAGCGACGACCCAATTGTTTAACACGCCTTGTAGGTCCAACGGAGTCACCTAGTGCAG", "binding signal": "8140 fluorescence intensity (a.u.)"}
    ]}
  ]
}
